Results published in patent publication US20120208753A1 (published 2012).
These are yes or no findings as the source states them, for the method shown. Some binding calls cover weakened binding; strength is not graded here. Sequences can lack the tags named with a protein.

Biological target: full length GDF-6 fused to a FLAG tag (secreted by transfected CHO cells) (human) (UniProt Q6KF10)
Assay: non-reducing PAGE of protein isolated from CHO cells

- binding: binds
B1: full length GDF-6 fused to a FLAG tag (secreted by transfected CHO cells) (ligand, human, UniProt Q6KF10 336-455, looked up, not shown: small tags and cut ends)
chain: TAFASRHGKRHGKKSRLRCSKKPLHVNFKELGWDDWIIAPLEYEAYHCEGVCDFPLRSHLEPTNHAIIQTLMNSMDPGSTPPSCCVPTKLTPISILYIDAGNNVVYKQYEDMVVESCGCR
